{"source": "PubChem BioAssay AID540276", "about": "(National Center for Advancing Translational Sciences (NCATS), 2011)", "note": "The campaign covered roughly 300,000 compounds. About 5,400 (1.8%) were called active. Inconclusive results, whose numbers are uncertain, are shown with a selection of clear calls. Calls come from the whole dose curve; tested in HEK293 cells. A potency beside an inconclusive call is a rough fit, not a confirmed value.", "data": [{"test": "qHTS for inhibitors of binding or entry into cells for Marburg Virus; note: potency is the fitted concentration of half-maximal effect", "conditions": "Marburg virus pseudotyped entry inhibition, cell reporter; series mostly up to 37.8 µM", "values": [{"compound": "CC(=O)c1ccc(NC(=O)CC2Nc3cccc4cccc(c34)NC2=O)cc1", "note": "(configuration not stated)", "Potency": "inactive"}, {"compound": "Cc1nc(Nc2nc(CSc3nc4ccccc4[nH]3)cc(=O)[nH]2)nc2ccccc12", "Potency": "active: 12.6 µM"}, {"compound": "C[C@@H]1C(c2ccccc2)CC(=O)C(=O)C[C@@H]1C(=O)N1CCCC1", "note": "(some centres not stated)", "Potency": "inactive"}, {"compound": "Cc1ccc(N2C(=O)[C@@H]3[C@H](C2=O)[C@H]2C=C(C(=O)c4ccccc4)C=CN2[C@@H]3C(=O)c2ccc(Cl)cc2)cc1", "Potency": "inconclusive: 1.58 µM [inhibitor, partial curve, poor fit]"}, {"compound": "O=C(CSc1ncccn1)NCc1ccc(Cl)cc1", "Potency": "inactive"}, {"compound": "NNc1cccc(C=Cc2ccccc2)cc1=O", "Potency": "inconclusive: 2.82 µM [activator, partial curve, poor fit]"}, {"compound": "C/C(=N\\NC(=O)c1ccc(F)cc1)c1cccc(NC(=O)c2ccco2)c1", "Potency": "inactive"}, {"compound": "O=C1CC(Nc2ccc3ccccc3c2)C(=O)N1Cc1ccccc1", "note": "(configuration not stated)", "Potency": "inconclusive: 4.11 µM [inhibitor, full curve, poor fit]"}, {"compound": "COc1ccc(OC)c(/C=N/NC(=O)c2cc3c(OC)cc(OC)cc3[nH]2)c1", "Potency": "inconclusive: 7.08 µM [inhibitor, partial curve]"}, {"compound": "Cc1ccc(NC2CCCN(C(=O)CCCN3CCCCC3=O)C2)cc1C", "note": "(configuration not stated)", "Potency": "inactive"}, {"compound": "CCOC(=O)c1ccccc1NC(=O)Nc1cc2c(cc1N1CCCCC1)n(C)c(=O)n2C", "Potency": "inactive"}, {"compound": "COc1ccc(OC)c(C2(O)CSC(=Nc3cccnc3)N2Cc2ccco2)c1", "note": "(configuration not stated)", "Potency": "inactive"}, {"compound": "COC(=O)c1ccc(NCc2c(O)ccc(O)c2Br)cc1Cl", "Potency": "inconclusive: 7.94 µM [inhibitor, partial curve]"}, {"compound": "CCC(=O)Oc1ccc(C/C(=N\\O)c2ccc(O)cc2O)o1", "Potency": "inactive"}, {"compound": "COc1ccc(OC)c(Cc2nnc(CCC(=O)N3CCN(C4CCCC4)CC3)o2)c1", "Potency": "inactive"}, {"compound": "COc1cccc(OCC(=O)Nc2cc(Cl)ccc2Oc2ccccc2)c1", "Potency": "inconclusive: 20.6 µM [inhibitor, single point]"}, {"compound": "Cc1ccc(S(=O)(=O)N2CCN(c3ccccn3)CC2)cc1", "Potency": "inconclusive: 12.6 µM [activator, single point]"}, {"compound": "CC1=CC2(O)OCCN(CCO)C2=CC1=O", "note": "(configuration not stated)", "Potency": "inconclusive: 0.146 µM [inhibitor, full curve, poor fit]"}, {"compound": "O=C(NC(=S)NCc1ccccc1)c1ccc(Br)cc1", "Potency": "inactive"}, {"compound": "Cc1cccc(/C=C(\\C#N)C(=O)Nc2ccccn2)c1", "Potency": "inactive"}, {"compound": "COc1ccc(NC(=O)Cn2c(C)cc3ccccc3c2=O)c(OC)c1", "Potency": "inconclusive: 6.31 µM [inhibitor, single point]"}, {"compound": "c1ccc(N2CCN(c3cnc4ccccc4n3)CC2)cc1", "Potency": "inconclusive: 11.2 µM [inhibitor, partial curve, poor fit]"}, {"compound": "COc1ccc(NC(=O)/C(N=Nc2ccc(Cl)c(S(=O)(=O)Nc3ccc(Cl)cc3)c2)=C(\\C)O)cc1", "Potency": "inconclusive: 5.62 µM [activator, partial curve, poor fit]"}, {"compound": "COCCn1c(COc2ccc(OC)cc2)nc2ccccc21", "Potency": "inactive"}, {"compound": "COc1ccc(-c2noc(C3CCCN(C(=O)c4ccccc4C)C3)n2)cc1", "note": "(configuration not stated)", "Potency": "inconclusive: 11.2 µM [inhibitor, single point]"}, {"compound": "CC1=Nc2cc(C(=O)NC3CCCC3)ccc2Sc2ccc(C)cc21", "Potency": "inconclusive: 0.562 µM [inhibitor, full curve, poor fit]"}, {"compound": "O=C(CSc1nnc(-c2ccncc2)n1Cc1ccco1)Nc1ccccc1Cl", "Potency": "inactive"}, {"compound": "COCCN(C(=S)Nc1ccc(OC)cc1)C1CCN(C(C)=O)CC1", "Potency": "inconclusive: 1.78 µM [activator, partial curve, poor fit]"}, {"compound": "Cc1ccc(NC(=O)C2OCCc3ccccc32)cc1C", "note": "(configuration not stated)", "Potency": "inconclusive: 35.5 µM [inhibitor, single point]"}, {"compound": "COc1ccc(N=Cc2ccc(-c3ccccc3)o2)cc1", "Potency": "inactive"}, {"compound": "CN(CC(=O)Nc1ccc(Cl)cc1)C(=O)c1ccc(S(=O)(=O)Nc2ccccc2)cc1", "Potency": "inconclusive: 12.6 µM [inhibitor, partial curve, poor fit]"}, {"compound": "CC1(CC(=O)N/N=C/c2ccc(-c3ccc(Cl)cc3)o2)OCCO1", "Potency": "inconclusive: 3.16 µM [inhibitor, partial curve, poor fit]"}, {"compound": "COc1ccc(CNC(=S)NC(C)CCc2ccccc2)cc1", "note": "(configuration not stated)", "Potency": "inconclusive: 11.2 µM [inhibitor, partial curve, poor fit]"}, {"compound": "CCOc1ccccc1NC(=O)Cn1cnc2sc(C)c(S(=O)(=O)N3CCC(C)CC3)c2c1=O", "Potency": "inactive"}, {"compound": "Cc1cc(C)cc(-n2c(SCC(N)=O)nc3c(oc4ccccc43)c2=O)c1", "Potency": "inactive"}, {"compound": "COc1ccc(-c2nnc3sc(CN4C(=O)c5ccccc5C4=O)nn23)cc1", "Potency": "inactive"}, {"compound": "C[C@@H]1CN(C(=O)c2nc3ccc(Cl)cn3c2CNCC[C@@H]2C[C@@H]3C=C[C@H]2C3)C[C@H](C)O1", "Potency": "inconclusive: 35.5 µM [inhibitor, single point]"}, {"compound": "O=C(CSc1nnc(-c2cccnc2)n1Cc1ccco1)Nc1nc(-c2ccc(F)cc2)cs1", "Potency": "inconclusive: 29.1 µM [inhibitor, single point]"}, {"compound": "COCCN(C(=O)C1CCCC1)c1c(N)n(Cc2ccccc2)c(=O)[nH]c1=O", "Potency": "inconclusive: 15.8 µM [activator, partial curve, poor fit]"}, {"compound": "FC(F)Sc1ccc(NC(=S)NCc2ccccc2)cc1", "Potency": "inconclusive: 10 µM [inhibitor, partial curve, poor fit]"}, {"compound": "Cc1nnc(SCc2nnc(-c3ccccc3)o2)n(N)c1=O", "Potency": "inactive"}, {"compound": "Cc1cc(C)cc(OCC(=O)Nc2ccccc2N2CCCCC2)c1", "Potency": "inconclusive: 20 µM [inhibitor, partial curve, poor fit]"}, {"compound": "COc1ccc(N=Nc2cc(OC)c(N)cc2OC)cc1", "Potency": "inconclusive: 35.5 µM [activator, single point]"}, {"compound": "COc1ccc(OC)c(CCNC(=O)Cn2nc(C)c3c(C)n(-c4ccc(C)cc4)nc3c2=O)c1", "Potency": "inconclusive: 7.94 µM [inhibitor, partial curve]"}, {"compound": "COC(=O)C1=C(C(=O)OC)[C@@H]2N(Cc3ccccc3)c3ccccc3[C@@]23C[C@@H](CO)N=C3N1", "Potency": "inconclusive: 0.211 µM [activator, full curve, poor fit]"}, {"compound": "COc1cc(-c2nc3ncccn3c2Nc2ccc(C)cc2C)ccc1O", "Potency": "inconclusive: 10 µM [inhibitor, partial curve, poor fit]"}, {"compound": "Cc1nc2cc3c(cc2s1)OCO3", "Potency": "inactive"}, {"compound": "CC(=O)Nc1cccc(Oc2nc(-c3ccccn3)nc3ccccc23)c1", "Potency": "inconclusive: 35.5 µM [inhibitor, single point]"}, {"compound": "COc1cccc(C(C(=O)NC(C)(C)C)N(Cc2ccco2)C(=O)CCC(=O)Nc2cc(C)on2)c1OC", "note": "(configuration not stated)", "Potency": "inconclusive: 14.1 µM [inhibitor, single point]"}, {"compound": "CC1CCCCN1S(=O)(=O)c1ccc(S(=O)(=O)N(Cc2ccccc2)Cc2ccco2)cc1", "note": "(configuration not stated)", "Potency": "inconclusive: 16.4 µM [inhibitor, partial curve, poor fit]"}, {"compound": "C/C(=N\\O)c1noc(C)c1C(=O)Nc1nccs1", "Potency": "inconclusive: 6.31 µM [inhibitor, single point]"}, {"compound": "Cc1ccc(C(C(=O)Nc2ccc3c(c2)OCO3)N(C)C(=O)Cc2c[nH]c3ccccc23)cc1", "note": "(configuration not stated)", "Potency": "active: 10 µM"}, {"compound": "O=C(Nc1cc(Cl)ccc1Cl)C1CC(=O)N(c2ccc(Br)cc2)C1", "note": "(configuration not stated)", "Potency": "inconclusive: 3.66 µM [inhibitor, partial curve, poor fit]"}, {"compound": "O=C(c1ccc(F)cc1)N1CCC(c2ccccc2)C1", "note": "(configuration not stated)", "Potency": "inactive"}, {"compound": "CCOc1ccc(/C=C/C(=O)Nc2ccccc2C(F)(F)F)cc1", "Potency": "inconclusive: 31.6 µM [activator, single point]"}, {"compound": "O=C(NCc1ccco1)C(Cc1ccccc1)N1C(=O)c2ccccc2C1=O", "note": "(configuration not stated)", "Potency": "inconclusive: 28.2 µM [activator, single point]"}, {"compound": "COc1ccc(Cl)cc1N1C(=NC(=O)C2CCCO2)SC2CS(=O)(=O)CC21", "note": "(configuration not stated)", "Potency": "inconclusive: 31.6 µM [activator, single point]"}, {"compound": "O=S(=O)(c1ccc(Br)cc1)c1nc(-c2ccco2)oc1NCC1CCCO1", "note": "(configuration not stated)", "Potency": "inactive"}, {"compound": "C#CCN1C(=O)C(O)(CC(=O)/C=C/C=C/c2ccccc2)c2ccccc21", "note": "(configuration not stated)", "Potency": "inconclusive: 29.1 µM [inhibitor, single point]"}, {"compound": "CC(=O)O[C@H]1CC[C@@]2(C)C(CCC3C2CC[C@]2(C)OC(=O)CCC32)C1", "note": "(some centres not stated)", "Potency": "inconclusive: 0.0183 µM [inhibitor, full curve, poor fit]"}, {"compound": "Cn1c(SCCCC(=O)c2ccc(Br)cc2)nnc1-c1ccncc1", "Potency": "inconclusive: 8.2 µM [inhibitor, partial curve, poor fit]"}, {"compound": "COc1cc(/C=N\\NC(=O)C2CC3C=CC2C3)ccc1O", "note": "(configuration not stated)", "Potency": "inconclusive: 23.1 µM [activator, partial curve, poor fit]"}, {"compound": "COc1ccccc1C(C)NC(=O)c1ccc(C)o1", "note": "(configuration not stated)", "Potency": "inconclusive: 20 µM [inhibitor, partial curve, poor fit]"}, {"compound": "CCC(=O)Nc1c(S(=O)(=O)c2ccccc2)c2nc3ccccc3nc2n1Cc1ccccc1", "Potency": "inconclusive: 35.5 µM [inhibitor, single point]"}, {"compound": "Cc1ccc(CCNC(=O)c2cn(C)c3ccc(S(=O)(=O)N4CCCCC4)cc3c2=O)cc1", "Potency": "inconclusive: 35.5 µM [activator, single point]"}, {"compound": "CC(C)c1ccc(-c2cc(C(=O)N3N=C(C(F)F)CC3(O)C(F)F)c3ccccc3n2)cc1", "note": "(configuration not stated)", "Potency": "inconclusive: 29.1 µM [inhibitor, single point]"}, {"compound": "CCC1Oc2ccc(C)cc2N(CC(=O)NCCCN2CCOCC2)C1=O", "note": "(configuration not stated)", "Potency": "inactive"}]}]}
